Results published in publication PMC6949223.
These are yes or no findings as the source states them, for the method shown. Binding seen in cells or lysates may run through a third protein. Some results given as binding are weak or reduced against the parent protein; the word gives no strength. Tags and fused reporters may be left off the sequences shown.

Key:
[1] = biological target: HA-tagged SGK196-WT (protein O-mannose kinase) (human) (UniProt Q9H5K3); test: co-IP; HEK293 cells; lysate (1 mg) in 50 mM Tris-HCl pH 7.4, 150 mM NaCl, 1% NP-40, 0.1% SDS, 1 mM EDTA with Protein A/G magnetic beads and antibodies overnight; Western blotting
[2] = biological target: T1, HA-tagged SGK196-4NQ (N67/165/220/235Q mutant) (human) (UniProt Q9H5K3); test: as above
T1 sequence: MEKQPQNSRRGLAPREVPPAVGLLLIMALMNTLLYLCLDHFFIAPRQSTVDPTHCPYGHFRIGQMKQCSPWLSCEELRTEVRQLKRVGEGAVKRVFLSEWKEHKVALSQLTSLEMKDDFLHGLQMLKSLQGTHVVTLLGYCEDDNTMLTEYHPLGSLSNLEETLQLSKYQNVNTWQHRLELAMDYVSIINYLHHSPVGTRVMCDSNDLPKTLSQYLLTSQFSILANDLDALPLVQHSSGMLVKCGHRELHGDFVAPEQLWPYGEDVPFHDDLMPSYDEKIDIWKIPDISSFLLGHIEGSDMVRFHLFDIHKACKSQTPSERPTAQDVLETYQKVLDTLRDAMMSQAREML

binding [1]: binds
binding [2]: binds
B1: FLAG-RPN1 (ribophorin I) (protein, UniProt P04843 24-607)
chain: ASSEAPPLINEDVKRTVDLSSHLAKVTAEVVLAHLGGGSTSRATSFLLALEPELEARLAHLGVQVKGEDEEENNLEVRETKIKGKSGRFFTVKLPVALDPGAKISVIVETVYTHVLHPYPTQITQSEKQFVVFEGNHYFYSPYPTKTQTMRVKLASRNVESYTKLGNPTRSEDLLDYGPFRDVPAYSQDTFKVHYENNSPFLTITSMTRVIEVSHWGNIAVEENVDLKHTGAVLKGPFSRYDYQRQPDSGISSIRSFKTILPAAAQDVYYRDEIGNVSTSHLLILDDSVEMEIRPRFPLFGGWKTHYIVGYNLPSYEYLYNLGDQYALKMRFVDHVFDEQVIDSLTVKIILPEGAKNIEIDSPYEISRAPDELHYTYLDTFGRPVIVAYKKNLVEQHIQDIVVHYTFNKVLMLQEPLLVVAAFYILFFTVIIYVRLDFSITKDPAAEARMKVACITEQVLTLVNKRIGLYRHFDETVNRYKQSRDISTLNSGKKSLETEHKALTSEIALLQSRLKTEGSDLCDRVSEMQKLDAQVKELVLKSAVEAERLVAGKLKKDTYIENEKLISGKRQELVTKIDHILDAL
